{"source": "PubChem BioAssay AID1347076", "about": "(National Center for Advancing Translational Sciences (NCATS), 2019)", "note": "Several values for one entry are separate records, joined by “and”; a condition that tells them apart may be missing. Equal entries are not always repeated. The whole screen tested about 400,000 compounds, of which about 13,000 (3.2%) were called active. The shares of active, inactive and inconclusive entries below differ from those in the screen. Calls follow the shape of the dose curve; as a rule, active = well fitted cell-killing curve with a large enough effect; inconclusive = small, poorly fitted or top-dose-only effect, or effect the other way; inactive = flat fitted curve, though single readings scatter. Potencies beside an inconclusive call are fits to weak or partial responses and may not hold up. % is scaled to controls: 0 for no effect and ±100 for the full control effect; potency is read from the fitted curve at half-maximal effect.", "data": [{"assay": "qHTS assay for MDR1-selective chemotherapeutics: Primary screen using the drug-selected MDR subline cells KB-V1; also: nearly all actives have a fitted effect of over 60% in size", "settings": "KB-V1 MDR cells viability, CellTiter-Glo, 72 h; activity change, negative = cytotoxicity: at 46.1 µM (top of the series)", "how_it_was_run": "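Luminescent ATP read-out (CellTiter-Glo, 10 min) measures survival of drug-selected KB-V1 MDR cells after 72 h, 37 degrees C compound exposure. Medium: phenol-red-free DMEM, 10% FBS. Values from fitted concentration-response curves.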", "values": [{"compound": "C=CCc1c(C)nc2cc(-c3ccccc3)[nH]n2c1=O", "Potency": "inconclusive: 14.6 µM [rising, single point]"}, {"compound": "C[C@@H]1CN([C@H](C)CO)C(=O)c2cc(NC(=O)Nc3ccc(C(F)(F)F)cc3)ccc2O[C@H]1CN(C)Cc1ccc(Cl)c(Cl)c1", "Potency": "inconclusive: 20.6 µM [cytotoxic, single point]"}, {"compound": "COc1ccc(CCC(=O)NCCOc2ccccc2Cl)cc1", "activity change, negative = cytotoxicity": "inactive: 4.05%"}, {"compound": "O=C(c1nc2ccc(Cl)cn2c1CN1CCCC(CO)C1)N1CCc2ccccc2C1", "note": "(stereo unspecified)", "Potency": "inconclusive: 7.31 µM [cytotoxic, partial curve, poor fit]"}, {"compound": "C[C@H](NC(=O)COc1ccc(Cl)cc1)C(=O)N1CCC2(CC1)NCCc1[nH]cnc12", "Potency": "inconclusive: 0.411 µM [rising, full curve, poor fit]"}, {"compound": "CC(=O)N1CC(C(=O)Nc2ccc3c(c2)OCO3)Oc2ccccc21", "note": "(stereo unspecified)", "Potency": "active: 20.6 µM"}, {"compound": "Cc1nn(CC(=O)NCCCN2CCN(C)CC2)c(=O)c2cc(-c3ccccc3)nn12", "Potency": "inconclusive: 2.91 µM [rising, full curve]"}, {"compound": "COc1ccc(CCNC(=O)CN(c2cc(C(F)(F)F)ccc2Cl)S(C)(=O)=O)cc1", "activity change, negative = cytotoxicity": "inactive: -0.969%"}, {"compound": "Cc1ccc(OCC(=O)Nc2ccccc2C(=O)OCc2cc(=O)n3ccsc3n2)cc1C", "activity change, negative = cytotoxicity": "inactive: 0%"}, {"compound": "CCN1CCN(C(=O)C2CCN(Cc3nc(-c4cccc(Cl)c4)oc3C)CC2)CC1", "activity change, negative = cytotoxicity": "inactive: 0.654%"}, {"compound": "CCOC(=O)c1c(NC(=O)Cc2coc3cc(C)ccc23)sc2c1CCCC2", "Potency": "inconclusive: 0.116 µM [rising, full curve]"}, {"compound": "CCCCN(C(=O)CSc1cc(C)c2ccc(OC)cc2n1)c1c(N)n(Cc2ccccc2)c(=O)[nH]c1=O", "Potency": "inconclusive: 29.1 µM [rising, single point]"}, {"compound": "O=C(c1cc2c(s1)CCC2)N1C(=O)c2ccccc2S1(=O)=O", "Potency": "inconclusive: 20.6 µM [rising, single point]"}, {"compound": "O=C(O)Cc1sc(Nc2ccccc2Cl)nc1-c1ccccc1", "Potency": "inconclusive: 29.1 µM [rising, single point]"}, {"compound": "COC(=O)c1sc(NC(=O)c2cc3nc(-c4ccc(Br)cc4)cc(C(F)(F)F)n3n2)c(C(=O)OC)c1C", "activity change, negative = cytotoxicity": "inactive: -18.6%"}, {"compound": "O=C(CN1CCN(c2ccccc2O)CC1)NC(=O)NC1CCCC1", "Potency": "inconclusive: 20.6 µM [cytotoxic, single point]"}, {"compound": "COc1ccccc1C(C)NC(=O)CCC(=O)N1CCN(S(=O)(=O)c2ccc(Cl)cc2)CC1", "note": "(stereo unspecified)", "Potency": "active: 18.4 µM"}, {"compound": "COC(=O)C1=CN(c2ccc(C)cc2)C(N)=C(C#N)C1c1ccc(OC)cc1", "note": "(stereo unspecified)", "Potency": "active: 23.1 µM"}, {"compound": "CC1CCCN(CC(=O)Nc2ccc(S(=O)(=O)N3CCCCCC3)cc2)C1", "note": "(stereo unspecified)", "Potency": "inconclusive: 29.1 µM [cytotoxic, single point]"}, {"compound": "COc1ccc(/C=N/Nc2ncnc(Cl)c2N)cc1OC", "Potency": "inconclusive: 14.6 µM [cytotoxic, single point]"}, {"compound": "O=C(Nc1nc2ccccc2n1CCOc1ccc(Cl)cc1)c1ccco1", "Potency": "inconclusive: 5.17 µM [cytotoxic, full curve, poor fit]"}, {"compound": "CCCn1nc(C(=O)NC2CCCC2)c2ccccc2c1=O", "activity change, negative = cytotoxicity": "inactive: -12.5%"}, {"compound": "Cc1ccc(C(=O)N2c3ccccc3N(Cc3ccccc3)C(=O)C2(C)C)cc1", "Potency": "active: 6.51 µM"}, {"compound": "Cc1ccc(NC(=O)OCc2cncs2)cc1", "Potency": "inconclusive: 4.61 µM [rising, partial curve]"}, {"compound": "Cc1[nH]c2ccccc2c1/C=C(\\C#N)C(=O)NCC1CCCO1", "note": "(stereo unspecified)", "Potency": "inconclusive: 16.4 µM [cytotoxic, single point]"}, {"compound": "COC(=O)[C@]1(Cc2ccccc2)N[C@H](CN(C)C(=O)Nc2ccccc2)[C@@H]2C(=O)N(Cc3ccccc3)C(=O)[C@@H]21", "activity change, negative = cytotoxicity": "inactive: -13.5%"}, {"compound": "COc1cc(-c2nnc(-c3ccco3)o2)ccc1OCc1ccccc1", "Potency": "active: 4.11 µM"}, {"compound": "C=CCNc1cc(C(F)(F)F)nc(-c2ccccn2)n1", "activity change, negative = cytotoxicity": "inactive: -4.5%"}, {"compound": "Cc1ccc(-n2ncc3c2CCCC3NC(=O)CCc2cnn(C)c2)cc1C", "note": "(stereo unspecified)", "Potency": "inconclusive: 18.4 µM [cytotoxic, partial curve]"}, {"compound": "Cc1nn(Cc2ccc(F)cc2)c2sc(C(=O)Nc3nccs3)cc12", "activity change, negative = cytotoxicity": "inactive: -4.36%"}, {"compound": "Cc1cccc(C(=O)Nc2ccc(C(=O)N/N=C/c3ccc4c(c3)OCO4)cc2)c1", "Potency": "inconclusive: 16.4 µM [cytotoxic, partial curve, poor fit]"}, {"compound": "CCOC(=O)C1=C(c2ccc(OC)cc2)OC(N)=C(C#N)C1c1cccnc1", "note": "(stereo unspecified)", "activity change, negative = cytotoxicity": "inactive: 0%"}, {"compound": "Cc1cc(=O)oc2cc(OC(=O)C3CCN(C(=O)c4ccc(F)cc4)CC3)ccc12", "activity change, negative = cytotoxicity": "inconclusive: -6.84%"}, {"compound": "Cc1cc2ncn(/N=C/c3ccc4c(c3)OCO4)c2cc1C", "Potency": "inconclusive: 16.4 µM [cytotoxic, single point]"}, {"compound": "Cc1sc(NC(=O)CSc2nnc(-c3ccccc3)o2)c(C#N)c1C", "activity change, negative = cytotoxicity": "inactive: -1.1%"}, {"compound": "COc1ccc(CCNC(=O)CSc2nnc(-c3ccccc3)c3ccccc23)cc1OC", "Potency": "inconclusive: 8.2 µM [cytotoxic, partial curve]"}, {"compound": "Cn1c(N2CCN(C(=O)Nc3ccc(F)cc3)CC2)nc2ccccc21", "Potency": "active: 18.4 µM"}, {"compound": "CCCCn1c(SCC(=O)N2CCCC2)nc2c1c(=O)n(C)c(=O)n2C", "Potency": "active: 9.2 µM"}, {"compound": "CC(NC(=O)c1ccc2c(=O)n3c(nc2c1)CCCCC3)c1ccccc1", "note": "(stereo unspecified)", "Potency": "inconclusive: 20.6 µM [cytotoxic, single point]"}, {"compound": "COc1cccc(CN(C)C(=O)c2cccc(NC(=O)CC3SC(N4CCCCC4)=NC3=O)c2)c1OC", "note": "(stereo unspecified)", "activity change, negative = cytotoxicity": "inactive: 0%"}, {"compound": "O=C(NCc1ccccc1)c1cccc(S(=O)(=O)NCc2ccccc2)c1", "Potency": "active: 16.4 µM"}, {"compound": "O=C1CCCC2=C1C1(CCCC1)N=C(Nc1nc3ccccc3s1)N2", "activity change, negative = cytotoxicity": "inactive: 24.8%"}, {"compound": "COC(=O)C1=C(C)N(c2cc(Cl)cc(Cl)c2)C(=O)C1", "Potency": "inconclusive: 29.1 µM [cytotoxic, single point]"}, {"compound": "O=C(NNc1ccccc1F)c1ccccc1", "Potency": "inconclusive: 16.4 µM [rising, single point]"}, {"compound": "COc1ccc(C(=O)Nc2ccc(C(=O)N3CCCCC3)cc2)cc1OC", "Potency": "inconclusive: 20.6 µM [cytotoxic, single point]"}, {"compound": "CCCCN(C)CCCNC(=O)CN1C(=O)COc2ccc(S(=O)(=O)N3CCOCC3)cc21", "Potency": "inconclusive: 14.6 µM [rising, partial curve, poor fit] and inconclusive: 8.2 µM [rising, partial curve, poor fit]"}]}]}
